According to PubChem BioAssay AID493014 (National Center for Advancing Translational Sciences (NCATS), 2011):
Values joined by “and” are separate entries in the source; they are usually repeats but may differ in a detail not shown here. Equal values may be shown once. Some of the results follow. Further columns of the screen follow, without active or inactive calls. Compounds called inactive in the main read-out are mostly missing here. Potencies come from curve fits of mixed quality, noted in brackets.

Test: qHTS Assay to Find Inhibitors of Chronic Active B-Cell Receptor Signaling
Conditions: ABC-DLBCL IkBa-CBG/CBR reporter, luminescence ratio (green luciferase fused to IkBa over red control in TMD8 lymphoma cells), 4 h
Method in brief: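 Compounds up to 46 uM were incubated four hours with TMD8 cells whose green CBG68 luciferase is fused to IkappaBalpha; red CBR luminescence normalised the signal, and concentration-effect curves were fitted to fusion, red and ratio data.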

[1] = measured here: CBR red luminescence, cell number
[2] = measured here: IkBa-CBG green luminescence

Row | SMILES | AC50 [1] | AC50 [2]
1 | COc1ccc(N2Cc3ccc(OC)c(OC)c3C2=O)cc1 | 10 µM [falling, single point] | 
2 | CCOc1ccccc1Oc1nc(C)nc2c1oc1ccccc12 |  | 20 µM [falling, single point]
3 | Fc1cccc(Nc2cc(-n3cccn3)ncn2)c1 | 1.84 µM [falling, partial curve, poor fit] | 
4 | CCCN=CC1=C(O)CC(c2ccccc2)CC1=O (centres undefined) | 25.9 µM [falling, partial curve, poor fit] | 
5 | CC1CC(C)CN(C(=O)c2ccc(CSc3nc4ccncc4[nH]3)cc2)C1 (centres undefined) | 20.6 µM [falling, partial curve, poor fit] | 
6 | CC(C)=CCC/C(C)=C/COc1c2occc2cc2ccc(=O)oc12 | 29.1 µM [rising, single point] | 
7 | COC(=O)c1[nH]c2ccccc2c1NC(=O)CN1CCC(C(N)=O)(N2CCCCC2)CC1 | 16.4 µM [rising, partial curve, poor fit] | 
8 | C/C(=N\NC(=O)c1cc(C)oc1C)c1ccc2ccccc2c1 | 4.47 µM [falling, partial curve, poor fit] | 
9 | O=C(NC1CCCCCCC1)C1CCC(CNc2c(N3CCCC3)c(=O)c2=O)CC1 (centres undefined) | 7.31 µM [rising, partial curve] | 
10 | O=C(Cc1cccs1)NC1CCCC1 | 35.5 µM [rising, single point] | 
11 | C#CCOc1ccc2c3c(c(=O)oc2c1)CCCC3 | 15.8 µM [rising, single point] | 
12 | O=C(Nc1nc2ccc(Cl)cc2s1)c1ccc(N2CCCCC2)c([N+](=O)[O-])c1 | 11.6 µM [falling, partial curve] | 
13 | Cc1cc(NS(=O)(=O)c2ccc(NC(=O)C(C)Oc3ccc(Cl)cc3)cc2)no1 (centres undefined) | 0.112 µM [falling, full curve, poor fit] | 
14 | Cn1c(=O)c2c(nc(N/N=C/c3ccc(OC(=O)c4ccco4)cc3)n2Cc2ccc(F)cc2)n(C)c1=O | 29.1 µM [falling, single point] | 
15 | Cn1c(C(C#N)C2=C(Cl)C(=O)N(c3ccccc3)C2=O)nc2ccccc21 (centres undefined) | 35.5 µM [falling, single point] | 
16 | Cc1ccc(NC(=O)CSc2nnc(CNC(=O)c3ccccc3F)o2)cc1Cl | 35.5 µM [falling, single point] | 
17 | Cc1ccc(C2C(C#N)=C(N)Oc3n[nH]c(-c4cccnc4)c32)o1 (centres undefined) | 10 µM [falling, partial curve, poor fit] | 
18 | Cc1ccc(-n2c(SCC(=O)Nc3ncc(Cl)cc3Cl)nc3ccccc32)cc1 | 23.1 µM [falling, partial curve] | 
19 | O=C(c1ccc(F)cc1)c1cc2ccccc2o1 | 6.31 µM [rising, full curve] | 
20 | COc1ccc(NC(=O)/C=C/c2ccc3c(c2)OCO3)cc1 | 3.55 µM [falling, full curve, poor fit] | 
21 | COc1ccc(/C=C/C(=O)N(Cc2cccs2)C2CCS(=O)(=O)C2)cc1 (centres undefined) | 35.5 µM [rising, single point] | 

Row | SMILES | AC50 [1] | AC50 [2]
22 | CCn1cc(C(=O)NCCCN2CCC(C)CC2)c(=O)c2cc(S(=O)(=O)N3CCCC3)ccc21 | 2.06 µM [falling, partial curve, poor fit] | 
23 | CC(=O)N1c2ccc(S(=O)(=O)N3CCC(C(=O)Nc4cc(C)cc(C)c4)CC3)cc2CC1C (centres undefined) | 3.55 µM [rising, partial curve, poor fit] | 
24 | CCOC(=O)Nc1ccc2c(CN3C(=O)NC(CC)(CC)C3=O)cc(=O)oc2c1 | 14.6 µM [falling, partial curve, poor fit] | 
25 | Cc1ccccc1CN(CC(=O)Nc1cccc([N+](=O)[O-])c1)S(=O)(=O)c1ccc(Cl)cc1 | 20.6 µM [falling, single point] | 
26 | Cc1ccc(/C=C2\SC(=S)N(CCC(=O)NNC(=O)c3ccc(O)cc3)C2=O)cc1 | 6.31 µM [falling, partial curve, poor fit] | 
27 | O=C1CC(Cc2ccccc2)C(=O)N1Cc1ccco1 (centres undefined) | 35.5 µM [falling, single point] | 
28 | COCc1cc(=O)n2[nH]c(SCc3ccccc3)nc2n1 | 6.51 µM [falling, partial curve] | 
29 | Brc1ccc(Cn2c(-c3cncs3)nc3ccccc32)cc1 | 18.4 µM [falling, partial curve, poor fit] | 
30 | CCOc1cccc(-c2c(C(=O)N/N=C/c3ccsc3)nnn2-c2nonc2N)c1 | 35.5 µM [falling, single point] | 
31 | COc1cc(NC(=O)C2CCCCC2)c2ncccc2c1 | 0.517 µM [rising, full curve, poor fit] | 
32 | O=C(N/N=C/c1ccc(N2CCOCC2)cc1)c1ccccc1OCCOc1ccccc1 | 12.6 µM [falling, partial curve, poor fit] | 
33 | COc1ccc(-c2nc3c(c(=O)[nH]c(=O)n3Cc3ccccc3)n2CCO)cc1 | 12.6 µM [rising, partial curve, poor fit] | 
34 | COc1ccccc1CCC(=O)OCc1csc(CC(=O)Nc2ccccc2C)n1 | 35.5 µM [falling, single point] | 
35 | COc1cc(C(=O)N2CCN(c3cccc(C)c3C)CC2)ccc1OCC(=O)N1CCOCC1 | 13 µM [rising, partial curve, poor fit] | 18.4 µM [falling, single point]
36 | c1cncc(-c2ccc3ncnc(NCc4ccc5c(c4)OCO5)c3c2)c1 | 10.3 µM [rising, partial curve, poor fit] and 4.11 µM [rising, full curve, poor fit] | 18.4 µM [falling, partial curve, poor fit] and 13 µM [falling, partial curve]
37 | Cc1nc2cc(NC(=O)Nc3cccc4ccccc34)ccc2n1C | 10 µM [falling, partial curve, poor fit] | 
38 | Cc1ccc(OCC(=O)NNC(=O)C2CSC3(C)CCC(=O)N23)cc1C (centres undefined) | 16.4 µM [falling, partial curve, poor fit] | 
39 | CNS(=O)(=O)c1cccc(C(=O)OCc2cc(=O)oc3c(C)c(O)ccc23)c1 | 22.4 µM [falling, single point] | 
40 | O=C(CSc1nnc(Nc2ccccc2)s1)Nc1cccc(S(=O)(=O)N2CCCCC2)c1 | 4.11 µM [falling, full curve] | 
41 | CN(CC(=O)O)S(=O)(=O)c1cc(Cl)ccc1Cl | 2.91 µM [rising, partial curve, poor fit] | 
42 | CC(NC(=S)Nc1ccc(S(=O)(=O)N2CCOCC2)cc1)C1CC2CCC1C2 (centres undefined) | 25.9 µM [falling, single point] | 

Records 2 through 3 of the list above:
Row | SMILES | AC50 [1] | AC50 [2]
2 | CCOc1ccccc1Oc1nc(C)nc2c1oc1ccccc12 |  | 20 µM [falling, single point]
3 | Fc1cccc(Nc2cc(-n3cccn3)ncn2)c1 | 1.84 µM [falling, partial curve, poor fit] | 

Additional entries follow:

Row | SMILES | AC50 [1] | AC50 [2]
43 | C=CCOc1ccc(CNn2cn[nH]c2=S)cc1OC | 14.6 µM [falling, partial curve] | 
44 | C/C(=N\Nc1ccc([N+](=O)[O-])cc1)c1ccco1 | 0.184 µM [rising, full curve] | 
45 | O=C(CSc1nc2ccccc2c(=O)n1NC(=O)Cc1ccccc1)NCCc1ccccc1 | 3.16 µM [rising, partial curve, poor fit] | 
46 | CCc1sc(NC(=O)CN2CCOCC2)nc1-c1ccccc1 | 0.731 µM [falling, full curve] | 
47 | Cc1ccc(C2NC(C(=O)O)CS2)cc1 (centres undefined) | 15.8 µM [rising, single point] | 
48 | CCN(CC)CCOc1cc2c(nn1)Oc1ccccc1N2C | 35.5 µM [rising, single point] | 
49 | COCC(=O)N(Cc1ccc(OC)cc1)Cc1nc2ccccc2c(=O)[nH]1 | 32.6 µM [falling, single point] | 
50 | CNC(=O)c1c[nH]c2ccc(S(=O)(=O)Nc3cccc(SC)c3)cc2c1=O | 35.5 µM [falling, single point] | 
51 | O=C(Nc1nc2c(s1)CCCC2)c1cccnc1 | 8.2 µM [falling, partial curve, poor fit] | 
52 | CCCN1C(=O)/C(=C\C=C2\N(CC)c3ccccc3C2(C)C)SC1=S | 0.562 µM [rising, full curve, poor fit] | 
53 | O=C(Cc1ccsc1)Nc1ccc(Cl)cc1Cl | 2.24 µM [rising, full curve] | 
54 | C/C(=N\NC(=O)c1cc2c(s1)CCC(C)C2)c1ccc[nH]1 (centres undefined) | 0.411 µM [rising, full curve] | 
55 | CCN(CC)C(=O)[C@H]1C[C@H](CC(=O)NCc2cccc(C(F)(F)F)c2)C(=O)N2CCc3c([nH]c4cc(-c5ccco5)ccc34)[C@]12C | 2.91 µM [falling, full curve, poor fit] | 32.6 µM [falling, partial curve, poor fit]
56 | Cc1ccc2[nH]c3c(=O)n(CC(=O)NCc4ccco4)ncc3c2c1 | 5.62 µM [falling, single point] | 
57 | O=c1[nH]c(C2CCN(S(=O)(=O)c3ccccc3C(F)(F)F)CC2)nc2c1nnn2Cc1ccccc1 | 35.5 µM [falling, single point] | 
58 | O=C(CCN1C(=O)c2ccccc2S1(=O)=O)Nc1ccc2c(c1)OCCO2 | 35.5 µM [falling, single point] | 
59 | O=C(Nc1ccc2c(c1)OCO2)c1ccc(Br)o1 | 29.1 µM [falling, single point] | 
60 | O=C(C1=NNC2C(=O)N(c3ccccc3)C(=O)C12)c1nc(Cl)ccc1Cl (centres undefined) | 6.51 µM [falling, partial curve] | 
61 | COc1cccc(C2N(c3cccc(Cl)c3)C(=O)C3CCCN32)c1OC (centres undefined) | 6.51 µM [rising, single point] | 

Record cards, as listed above.
`CNC(=O)c1c[nH]c2ccc(S(=O)(=O)Nc3cccc(SC)c3)cc2c1=O` reads AC50 [1]: 35.5 µM [falling, single point]
`O=c1[nH]c(C2CCN(S(=O)(=O)c3ccccc3C(F)(F)F)CC2)nc2c1nnn2Cc1ccccc1` reads AC50 [1]: 35.5 µM [falling, single point]
